In test [1] the target is T1, PUSL1-FLAG (UniProt Q8N0Z8).
T1 sequence: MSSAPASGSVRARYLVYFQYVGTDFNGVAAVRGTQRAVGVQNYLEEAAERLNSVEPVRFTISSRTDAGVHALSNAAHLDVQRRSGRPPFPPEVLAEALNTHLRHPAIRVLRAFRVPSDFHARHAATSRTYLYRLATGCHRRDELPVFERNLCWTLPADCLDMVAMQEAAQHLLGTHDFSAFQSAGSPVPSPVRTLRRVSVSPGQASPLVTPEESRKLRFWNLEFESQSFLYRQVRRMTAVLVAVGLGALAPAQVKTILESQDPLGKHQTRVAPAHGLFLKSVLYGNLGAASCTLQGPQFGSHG
Description: affinity purification with mass spectrometry; PUSL1-FLAG co-immunoprecipitated from mitochondria of HEK293T cells lysed with 3% digitonin, Mito-GFP cells as control; LFQ-MS/MS.

Sequences of proteins named here, by UniProt entry; tags and fusion partners are left off. Residues count along the entry.
UniProt Q8R035, residues 30-206: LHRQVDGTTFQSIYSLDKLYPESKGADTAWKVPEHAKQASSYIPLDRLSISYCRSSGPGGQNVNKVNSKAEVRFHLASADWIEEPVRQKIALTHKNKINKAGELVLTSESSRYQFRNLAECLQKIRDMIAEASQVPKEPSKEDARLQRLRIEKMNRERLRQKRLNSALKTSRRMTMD
UniProt A4D1E9: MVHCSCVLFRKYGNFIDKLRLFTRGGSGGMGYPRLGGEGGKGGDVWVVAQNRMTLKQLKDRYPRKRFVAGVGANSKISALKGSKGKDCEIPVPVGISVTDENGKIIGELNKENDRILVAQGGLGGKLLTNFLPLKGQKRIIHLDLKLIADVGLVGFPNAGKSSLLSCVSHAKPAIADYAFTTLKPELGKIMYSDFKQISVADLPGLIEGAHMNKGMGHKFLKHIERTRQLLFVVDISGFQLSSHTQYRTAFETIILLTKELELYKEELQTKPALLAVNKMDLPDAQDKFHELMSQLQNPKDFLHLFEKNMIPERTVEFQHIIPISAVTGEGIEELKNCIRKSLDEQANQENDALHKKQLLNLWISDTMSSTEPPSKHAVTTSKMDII

Test [2] deals with mL62-FLAG (mouse) (UniProt Q8R035). Description: affinity purification with mass spectrometry; mL62-FLAG co-immunoprecipitated from digitonin lysates of heart mitochondria of 18- to 20-week-old Mterf4 knockout MitoRibo-Tag mice (L/L, +/Cre, T/T) versus control MitoRibo-Tag mice (L/L, +/+, T/T); LFQ-MS/MS.
Test [3] shares this target. Briefly: affinity purification with mass spectrometry; mL62-FLAG co-immunoprecipitated on anti-FLAG M2 beads from 1% digitonin lysates of heart, liver and kidney mitochondria of MitoRibo-Tag mice, WT mice as control; 10 mM Tris-HCl pH 7.5, 100 mM KCl, 20 mM MgCl2; on-bead trypsin elution; LFQ-MS/MS.

No constants are given. Whether binding was seen depends on the method and setting. Binding seen in cells or lysates may run through a third protein. A yes stands for co-enrichment or nearness to the bait. Other partners may have been found. For some assays here: Where a sequence is shown, tags or fusion partners need not be part of it.

As to “GTPBP10 (human, endogenous) (from UniProt A4D1E9 1-387)”, in test [1], the binding entry is given as “binds”.

B1: NOA1 (human, endogenous) (protein, UniProt Q8NC60 1-698)
chain: MLPARLPFRLLSLFLRGSAPTAARHGLREPLLERRCAAASSFQHSSSLGRELPYDPVDTEGFGEGGDMQERFLFPEYILDPEPQPTREKQLQELQQQQEEEERQRQQRREERRQQNLRARSREHPVVGHPDPALPPSGVNCSGCGAELHCQDAGVPGYLPREKFLRTAEADGGLARTVCQRCWLLSHHRRALRLQVSREQYLELVSAALRRPGPSLVLYMVDLLDLPDALLPDLPALVGPKQLIVLGNKVDLLPQDAPGYRQRLRERLWEDCARAGLLLAPGHQGPQRPVKDEPQDGENPNPPNWSRTVVRDVRLISAKTGYGVEELISALQRSWRYRGDVYLVGATNAGKSTLFNTLLESDYCTAKGSEAIDRATISPWPGTTLNLLKFPICNPTPYRMFKRHQRLKKDSTQAEEDLSEQEQNQLNVLKKHGYVVGRVGRTFLYSEEQKDNIPFEFDADSLAFDMENDPVMGTHKSTKQVELTAQDVKDAHWFYDTPGITKENCILNLLTEKEVNIVLPTQSIVPRTFVLKPGMVLFLGAIGRIDFLQGNQSAWFTVVASNILPVHITSLDRADALYQKHAGHTLLQIPMGGKERMAGFPPLVAEDIMLKEGLGASEAVADIKFSSAGWVSVTPNFKDRLHLRGYTPEGTVLTVRPPLLPYIVNIKGQRIKKSVAYKTKKPPSLMYNVRKKKGKINV
B1: in test [1], the binding entry is reported as “binds”.

B2: MTERF4 (human, endogenous) (protein, UniProt Q7Z6M4 43-381)
chain: LTTASNGGVIEELSCVRSNNYVQEPECRRNLVQCLLEKQGTPVVQGSLELERVMSSLLDMGFSNAHINELLSVRRGASLQQLLDIISEFILLGLNPEPVCVVLKKSPQLLKLPIMQMRKRSSYLQKLGLGEGKLKRVLYCCPEIFTMRQQDINDTVRLLKEKCLFTVQQVTKILHSCPSVLREDLGQLEYKFQYAYFRMGIKHPDIVKSEYLQYSLTKIKQRHIYLERLGRYQTPDKKGQTQIPNPLLKDILRVSEAEFLARTACTSVEEFQVFKKLLAREEEESESSTSDDKRASLDEDEDDDDEEDNDEDDNDEDDDDEDDDEAEDNDEDEDDDEEE
B2: the binding entry in test [1] is on record as “binds”.

B3: GTP-binding protein 10 (mouse, endogenous) (protein, UniProt Q8K013 1-366)
chain: MVRCGCALLRKYGNFIDNLRIFTKGGSGGMGYPRLGGEGGRGGDVWVVAHKNMTLKQLKNKYPQKRFVAGGGANSRVSALQGSKGKDCEVPAPVGISVTDENGQVLGELNKEEDRVLVAKGGLGGKLHTNFLPLKGQKRIVHLDLKVIADVGLVGFPNAGKSSLLSRVSHATPVIADYAFTTLRPELGKIMYNDFKQISVADLPGLIEGAHMNKGMGHKFLKHLERTRQLLFVVDISGFQLSSVTPYRTAFETIILLTKELELYKEELQTKPALLAINKMDLPDAQVKLQELMKQLLSPEDFLHLFETKMIPEKALEFQHIVPISTVTGEGIAELKSCIRKALDEQDGKESDAHRSKQLLNLQSSS
As for B3, the binding entry in test [2] and in test [3] was “binds” throughout.
